Measurements taken from paper PMC6488588.
No constants are given. Whether binding was seen depends on the method and setting. In cells and extracts the contact can be indirect. Some binding calls cover weakened binding; strength is not graded here. Where a sequence is shown, tags or fusion partners need not be part of it.

By UniProt entry, the sequences of proteins in these tests, tags left out.
UniProt Q96CV9: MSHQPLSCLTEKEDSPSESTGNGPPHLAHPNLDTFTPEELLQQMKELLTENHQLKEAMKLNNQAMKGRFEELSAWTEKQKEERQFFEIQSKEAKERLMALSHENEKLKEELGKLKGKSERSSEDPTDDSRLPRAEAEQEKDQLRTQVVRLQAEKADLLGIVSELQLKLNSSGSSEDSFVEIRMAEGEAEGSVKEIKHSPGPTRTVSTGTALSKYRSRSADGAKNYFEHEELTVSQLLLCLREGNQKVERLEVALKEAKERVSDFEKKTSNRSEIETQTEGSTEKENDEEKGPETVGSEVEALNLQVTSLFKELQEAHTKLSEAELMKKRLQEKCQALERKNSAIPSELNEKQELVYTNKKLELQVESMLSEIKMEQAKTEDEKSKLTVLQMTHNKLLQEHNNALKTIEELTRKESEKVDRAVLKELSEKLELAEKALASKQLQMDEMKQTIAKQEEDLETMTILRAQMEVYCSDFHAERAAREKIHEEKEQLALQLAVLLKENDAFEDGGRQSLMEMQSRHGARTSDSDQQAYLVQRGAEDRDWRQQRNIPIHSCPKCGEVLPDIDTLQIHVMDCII

T1: Flag-tagged wild-type (WT) Rv1468c (Mycobacterium tuberculosis) (UniProt Q79FP0)
T1 sequence: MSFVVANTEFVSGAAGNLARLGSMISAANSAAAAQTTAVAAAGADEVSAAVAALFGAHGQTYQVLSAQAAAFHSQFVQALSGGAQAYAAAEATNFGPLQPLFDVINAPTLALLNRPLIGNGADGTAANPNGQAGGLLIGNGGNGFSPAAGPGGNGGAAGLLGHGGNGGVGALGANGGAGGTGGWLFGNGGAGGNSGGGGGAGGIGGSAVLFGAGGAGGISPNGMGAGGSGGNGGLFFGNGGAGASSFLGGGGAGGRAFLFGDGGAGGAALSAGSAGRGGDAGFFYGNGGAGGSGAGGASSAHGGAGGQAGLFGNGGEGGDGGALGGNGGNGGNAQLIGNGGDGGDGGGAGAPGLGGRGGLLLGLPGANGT

B1: GFP-tagged NDP52 (protein, UniProt Q13137 1-446)
chain: MEETIKDPPTSAVLLDHCHFSQVIFNSVEKFYIPGGDVTCHYTFTQHFIPRRKDWIGIFRVGWKTTREYYTFMWVTLPIDLNNKSAKQQEVQFKAYYLPKDDEYYQFCYVDEDGVVRGASIPFQFRPENEEDILVVTTQGEVEEIEQHNKELCKENQELKDSCISLQKQNSDMQAELQKKQEELETLQSINKKLELKVKEQKDYWETELLQLKEQNQKMSSENEKMGIRVDQLQAQLSTQEKEMEKLVQGDQDKTEQLEQLKKENDHLFLSLTEQRKDQKKLEQTVEQMKQNETTAMKKQQELMDENFDLSKRLSENEIICNALQRQKERLEGENDLLKRENSRLLSYMGLDFNSLPYQVPTSDEGGARQNPGLAYGNPYSGIQESSSPSPLSIKKCPICKADDICDHTLEQQQMQPLCFNCPICDKIFPATEKQIFEDHVFCHSL

Target: T1, Flag-tagged wild-type (WT) Rv1468c (Mycobacterium tuberculosis)
Assay: co-IP

| Molecule | binding |
| --- | --- |
| GFP-tagged OPTN (from UniProt Q96CV9 1-577) | binds |
| GFP-tagged p62 (from UniProt Q13501 1-440) | binds |
| B1 | binds |
